Source: US20240158445A1, “CYCLIC CELL-PENETRATING PEPTIDES WITH THREE OR MORE HYDROPHOBIC RESIDUES” (Ohio State Innovation Foundation, priority 2021, published 2024)
Structures were worked out from names or drawings and are uncertain.

Protein sequences, listed by entry. Tags and fused reporters are not part of them. Residues count along the entry.
UniProt Q14145, 321-609 limits assumed: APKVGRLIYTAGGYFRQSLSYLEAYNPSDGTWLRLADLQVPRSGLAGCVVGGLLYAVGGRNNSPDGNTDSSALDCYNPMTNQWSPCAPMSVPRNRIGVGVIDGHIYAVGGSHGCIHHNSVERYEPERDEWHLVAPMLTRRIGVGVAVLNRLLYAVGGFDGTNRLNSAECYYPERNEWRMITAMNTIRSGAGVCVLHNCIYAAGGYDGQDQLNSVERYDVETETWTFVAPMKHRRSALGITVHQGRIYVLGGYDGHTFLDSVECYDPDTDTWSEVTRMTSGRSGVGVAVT

Experiments:
Keap1-Nrf2 interaction = test: Luciferase reporter assay in ARE reporter-HepG2 cells; conditions: 18 h; for increase of luciferase activity: 310 nM; for maximal induction of luciferase expression: highest concentration tested (5 μM)
Keap1 = Keap1 (Homo sapiens, UniProt Q14145); test: FP-based competition assay; conditions: read-out: IC50, binding to the Kelch domain of Keap1; Keap1 40 nM, fluorescein-labeled peptide 2 20 nM, 1 h

IC50 (Keap1) [nM]	Structure (SMILES)	increase of luciferase activity (Keap1-Nrf2 interaction)	maximal induction of luciferase expression (Keap1-Nrf2 interaction) [fold]
18	CC(C)C[C@@H]1NC(=O)[C@H](Cc2ccccc2)NC(=O)[C@H](CCC(=O)O)NC(=O)CNC(=O)[C@H]([C@@H](C)O)NC(=O)[C@H](CCC(=O)O)NC(=O)[C@@H]2CCCN2C(=O)[C@H](CC(=O)O)NC(=O)[C@H](CC(C)C)NC(=O)[C@H](CCC(=O)NCCOCCOCC(=O)NCCCC[C@H](NC(=O)CC[C@@H]2NC(=O)[C@@H](CCCNC(=N)N)NC(=O)[C@H](CCCNC(=N)N)NC(=O)[C@@H](CCCNC(=N)N)NC(=O)[C@H](CCCNC(=N)N)NC(=O)[C@H](Cc3ccc4ccccc4c3)NC(=O)[C@@H](Cc3ccccc3)NC(=O)[C@H](Cc3ccccc3)NC2=O)C(N)=O)NC(=O)CNC1=O	did not have significant effect	3
22	CC(C)C[C@@H]1NC(=O)[C@H](Cc2ccccc2)NC(=O)[C@H](CCC(=O)O)NC(=O)CNC(=O)[C@H]([C@@H](C)O)NC(=O)[C@H](CCC(=O)O)NC(=O)[C@@H]2CCCN2C(=O)[C@H](CC(=O)O)NC(=O)[C@H](CC(C)C)NC(=O)[C@H](CCC(=O)NCCOCCOCC(=O)NCCCC[C@H](NC(=O)CC[C@@H]2NC(=O)[C@@H](CCCNC(=N)N)NC(=O)[C@H](CCCNC(=N)N)NC(=O)[C@@H](CCCNC(=N)N)NC(=O)[C@H](CCCNC(=N)N)NC(=O)[C@H](Cc3csc4ccccc34)NC(=O)[C@@H](Cc3ccccc3)NC(=O)[C@H](Cc3ccccc3)NC2=O)C(N)=O)NC(=O)CNC1=O	2 fold	4
